Measurements reported in ChEMBL document CHEMBL3880399 (2004).

Protein sequences, listed by entry. Tags and fused reporters are not part of them.
UniProt P28223, whole entry: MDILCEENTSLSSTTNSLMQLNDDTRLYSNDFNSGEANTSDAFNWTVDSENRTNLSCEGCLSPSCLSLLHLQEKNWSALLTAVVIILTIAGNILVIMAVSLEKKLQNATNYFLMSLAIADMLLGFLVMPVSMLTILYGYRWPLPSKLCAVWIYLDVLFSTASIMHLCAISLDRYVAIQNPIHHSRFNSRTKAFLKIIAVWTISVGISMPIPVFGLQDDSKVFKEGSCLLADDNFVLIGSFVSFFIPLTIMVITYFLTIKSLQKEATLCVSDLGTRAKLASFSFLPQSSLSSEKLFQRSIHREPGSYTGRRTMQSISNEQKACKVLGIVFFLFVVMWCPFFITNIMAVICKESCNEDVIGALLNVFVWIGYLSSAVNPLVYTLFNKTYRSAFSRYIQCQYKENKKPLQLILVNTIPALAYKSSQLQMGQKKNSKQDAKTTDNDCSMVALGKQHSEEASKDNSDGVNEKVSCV

Molecular target: 5-hydroxytryptamine receptor 2A (Homo sapiens, UniProt P28223)
Format: cell-based, NIH/3T3

EC50: 1170 nM
SMILES: CCCN[C@H]1CCc2nc(N)sc2C1 [PRAMIPEXOLE]
